In PubChem BioAssay (NCATS):
Some of the results follow. Further columns of the screen follow, without active or inactive calls. Compounds called inactive in the main read-out are mostly missing here. For some assays here: The note in brackets gives the kind of curve behind each potency; many fits are weak.

How the values were obtained:
[1] = qHTS assay for small molecule antagonists of peroxisome proliferator-activated receptor gamma signaling (AID 588537); details: HEK293 PPARg-UAS-bla, beta-lactamase ratio, antagonist mode; measured here: W460 blue channel
Outline: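 Antagonist-mode β-lactamase reporter screen run as a titration series. HEK293 PPARγ-UAS-bla cells are stimulated with rosiglitazone (50 nM final) for 16 h, then CCF4 is read at 460/530 nm. Data are scaled between DMSO and rosiglitazone and fitted to the Hill equation.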

[2] = qHTS assay for small molecule antagonists of retinoid X receptor alpha signaling (AID 588546); details: HEK293T RXRa-UAS-bla, beta-lactamase ratio, antagonist mode; measured here: W530 green channel, cytotoxicity proxy;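 further: cells stimulated with 9-cis-retinoic acid as agonist; on the % scale 0 is the no-effect control and ±100 the full control effect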
Outline: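 Beta-lactamase reporter inhibition, read as CCF4 fluorescence ratio (ex 405, em 460/530 nm) after 2 h at RT. HEK293T UAS-bla cells, 2500/well, were stimulated with 9-cis-RA at 500 or 100 nM final alongside test compound for 18 h at 37 C.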

[3] = S16 Schwann cell PMP22 intronic element beta-lactamase assay (AID 624044); details: S16 rat Schwann cells, PMP22 element beta-lactamase FRET, 24 h
Outline: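 Beta-lactamase reporter under a PMP22 intronic regulatory element in stable S16 rat Schwann cells; 24 h compound exposure. 460 nm blue signal normalized between DMSO (0%) and potassium clavulanate, with 535 nm FRET tracking viability; curves classed by r2 and response.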

[4] = qHTS assay for small molecule antagonists of vitamin D receptor signaling (AID 588541); details: HEK293T VDR-UAS-bla, beta-lactamase ratio, antagonist mode; measured here: W460 blue channel (cell viability)
[5] = qHTS assay for small molecule agonists of retinoid X receptor alpha signaling (AID 588544); details: HEK293T RXRa-UAS-bla, beta-lactamase reporter, 18 h; 530 nm emission
[6] = qHTS Assay for Inhibitors of PDE-IV (AID 607); details: HEK293 ACTOne CNG channel cells, membrane potential fluorescence; measured here: parental cell counter-screen
Outline: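 Cell-based read-out of cAMP via a modified cyclic nucleotide-gated channel and membrane potential dye (535/590 nm) in HEK293 cells expressing PDE4 endogenously. Compounds tested up to 22.9 uM final; 100 uM RO 20-1724 reference.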

[7] = measured here: 530 nm viability channel
[8] = measured here: 460 nm blue channel

COc1cc(CNC(=O)CCCC/C=C/C(C)C)ccc1O
AC50 [1]: 50.1 µM [falling, single point]
max response [2]: 11.6%

CC(=O)c1ccc(S(=O)(=O)NC(=O)NC2CCCCC2)cc1
AC50 [1]: 0.0447 µM [falling, full curve, poor fit]
AC50 [3, 7]: 0.00158 µM [falling, full curve, poor fit]

O=C(Cl)c1ccccc1[N+](=O)[O-]
AC50 [1]: 50.1 µM [rising, single point]
max response [2]: -6.66%

CCCCC(CC)COC(=O)CC(C(=O)OCC(CC)CCCC)S(=O)(=O)O (stereo not given)
AC50 [4]: 25.1 µM [falling, full curve]
max response [5]: 51.5%
max response [2]: -1.1%

CCN(CC)c1ccc2c(C)cc(=O)oc2c1
AC50 [4]: 39.8 µM [rising, partial curve, poor fit]
max response [5]: 43.9%
max response [2]: 59.5%

CCOC(=O)c1ccc(O)cc1
AC50 [4]: 0.0891 µM [falling, full curve, poor fit]

CCCCCCCCCCCO
AC50 [1]: 0.00158 µM [falling, full curve, poor fit]
max response [2]: -16.1%

CCCC/C=C/CCCCO
AC50 [4]: 25.1 µM [rising, partial curve, poor fit]

CCCCCCCCCCCCCCCCCC(N)=O
AC50 [4]: 50.1 µM [rising, single point]
max response [5]: -19.3%
max response [2]: 4.05%

CS(=O)(=O)OCCCCOS(C)(=O)=O
AC50 [1]: 50.1 µM [rising, single point]
max response [5]: -13.5%
max response [2]: -12.3%

O=Nc1ccc(NO)cc1
AC50 [1]: 70.8 µM [rising, single point]
max response [5]: -10.8%
max response [2]: -12.2%

O=C(O)CN(CC(=O)O)CC(=O)O
AC50 [1]: 0.0631 µM [falling, full curve, poor fit]
max response [5]: -8.57%
max response [2]: -10.9%

NC(=S)NNC(N)=S
AC50 [1]: 0.355 µM [rising, full curve, poor fit]
max response [2]: 30.6%

O=S(=O)(c1ccccc1)N(CC(F)(F)F)c1ccc(C(O)(C(F)(F)F)C(F)(F)F)cc1
AC50 [4]: 50.1 µM [falling, single point]

O=C(O)C(c1ccc(Cl)cc1)c1ccc(Cl)cc1
max response [5]: -6.13%

Nc1c2ccccc2nc2ccccc12
max response [5]: 22.9%
AC50 [3, 8]: 22.4 µM [falling, partial curve]

COC(=O)[C@@]1(Cc2ccc(OC)cc2)[C@H]2c3cc(C(=O)N4CCCC4)n(Cc4ccc(C(F)(F)F)nc4)c3C[C@H]2CN1C(=O)c1ccccc1
AC50 [6]: 12.6 µM [rising, single point]

C[C@@H](C(=O)O)[C@@H]1C[C@@]1(C)[C@@H](NC(=O)OCc1ccccc1)c1ccccc1
AC50 [6]: 2 µM [rising, single point]

CCCC[C@@H]1C[C@H]1C(NC(=O)c1ccc(C(F)(F)F)cc1)c1ccc(C(=O)OC)cc1 (stereo not given in full)
AC50 [6]: 2.51 µM [rising, full curve]

CCc1c2c(nc3cccc(C(C)C)c13)-c1cccc(=O)n1C2
AC50 [6]: 3.98 µM [rising, single point]

C[C@@H](C(=O)O)c1ccc(C(=O)c2ccccc2)s1
AC50 [6]: 1.26 µM [rising, partial curve]

COc1ccccc1-c1ccc2ncnc(NCCN3CCOCC3)c2c1
AC50 [6]: 2.51 µM [rising, single point]

CC1=C(C(=O)OCc2ccccc2)C(c2ccc3ccccc3c2)NC(=O)N1CCCCCC(=O)O (stereo not given)
AC50 [6]: 15.8 µM [rising, single point]

CCCCC1(COC(=O)CCC(=O)O)C(=O)N(c2ccccc2)N(c2ccccc2)C1=O
AC50 [6]: 6.31 µM [rising, partial curve, poor fit]

O=C(NCc1ccccn1)[C@H]1C[C@@H]1[C@H](NP(=O)(c1ccccc1)c1ccccc1)c1ccccc1
AC50 [6]: 0.631 µM [rising, single point]

O=C(c1cnccn1)N1CCC2(CCCN(c3cccc(-c4ccccc4)c3)C2)CC1
AC50 [6]: 15.8 µM [rising, single point]

COc1ccccc1CNc1ncncc1-c1ccccc1C
AC50 [6]: 15.8 µM [rising, single point]

COc1ccc(CNc2ccnc(-c3ccccc3C(F)(F)F)n2)c(OC)c1
AC50 [6]: 10 µM [rising, single point]

Nc1ncnc2c1ncn2[C@@H]1O[C@@H](C(=O)NC2CC2)[C@H](O)[C@@H]1O
AC50 [6]: 6.31 µM [rising, partial curve, poor fit]

CCCC/C=C/C(NC(=O)c1cccs1)c1ccccc1 (stereo not given)
AC50 [6]: 10 µM [rising, single point]

COCC(=O)N1CCC2(CCN(Cc3ccncc3)CC2)CC1
AC50 [6]: 0.631 µM [rising, single point]

CCCC[C@H]1C[C@@H]1[C@@H]1N(P(=O)(c2ccccc2)c2ccccc2)C[C@@](O)(c2ccccc2)CC12CC2
AC50 [6]: 3.98 µM [rising, single point]

CN1[C@H](CC(=O)c2ccccc2)CCC[C@H]1C[C@H](O)c1ccccc1
AC50 [6]: 15.8 µM [rising, partial curve, poor fit]

COC(=O)[C@@]1(Cc2ccc(F)cc2)[C@H]2c3cc(C(=O)N4CCCC4)n(Cc4ccc(S(C)(=O)=O)cc4)c3C[C@H]2CN1C(=O)c1ccccc1
AC50 [6]: 10 µM [rising, single point]

COc1cccc(-c2ccc3ncnc(NCc4ccccc4)c3c2)c1
AC50 [6]: 12.6 µM [rising, single point]

FC(F)(F)c1cc(CO[C@@H]2CCCN[C@H]2c2ccccc2)cc(C(F)(F)F)c1
AC50 [6]: 15.8 µM [rising, partial curve]

CN1[C@@H](CC(=O)c2ccccc2)CCC[C@@H]1C[C@@H](O)c1ccccc1
AC50 [6]: 10 µM [rising, single point]

CCn1cc(C(=O)O)c(=O)c2ccc(Cc3ccccc3)nc21
AC50 [6]: 5.01 µM [rising, partial curve, poor fit]

C[C@H](C(=O)O)c1cccc(Oc2ccccc2)c1
AC50 [6]: 7.94 µM [rising, single point]

CC(C)(C)C(=O)NC(c1ccc(Cl)cc1)[C@]1(C)C[C@H]1C1CCCCC1 (stereo not given in full)
AC50 [6]: 2 µM [rising, single point]

Cc1ccc(CNC(=O)[C@H](C)[C@H]2C[C@]2(C)[C@H](NC(=O)OCc2ccccc2)c2ccccc2)o1
AC50 [6]: 0.0158 µM [falling, full curve, poor fit]

CC(C)NC(=O)N1CCC2(CC1)CCN(C(=O)c1ccncc1)CC2
AC50 [6]: 3.98 µM [rising, single point]

O=C(NCC1CC1)[C@@H]1C[C@H]1[C@@H](NP(=O)(c1ccccc1)c1ccccc1)c1ccccc1
AC50 [6]: 0.398 µM [rising, single point]

N#Cc1cccc(-c2cncnc2NCc2cccs2)c1
AC50 [6]: 12.6 µM [rising, single point]

CN(C)Cc1ccccc1-c1nc(N2CCOCC2)c2ccccc2n1
AC50 [6]: 12.6 µM [rising, partial curve]

C[C@@H](C(=O)N[C@@H](CO)Cc1ccccc1)[C@H]1C[C@]1(C)[C@H](NC(=O)OCc1ccccc1)c1ccccc1
AC50 [6]: 10 µM [rising, single point]

OC[C@H](CCc1c[nH]c2ccccc12)c1c[nH]c2ccccc12
AC50 [6]: 2 µM [falling, partial curve]

COC(=O)[C@@]1(Cc2ccc(F)cc2)[C@H]2c3cc(C(=O)N4CCCC4)n(Cc4ccc(Cl)c(C(F)(F)F)c4)c3C[C@H]2CN1C(=O)c1ccccc1
AC50 [6]: 12.6 µM [rising, single point]

COc1cc2c(c(OC)c1OC)-c1ccc(OC)c(=O)cc1[C@H](NC(C)=O)CC2
AC50 [6]: 12.6 µM [rising, single point]

CCCC[C@@H]1C[C@H]1C(NC(=O)c1ccco1)c1ccccc1 (stereo not given in full)
AC50 [6]: 7.94 µM [rising, partial curve]

O=C(c1cc(C(F)(F)F)cc(C(F)(F)F)c1)N1CCC2(CC1)CCN(c1ccncc1)CC2
AC50 [6]: 12.6 µM [rising, partial curve]

O=C(c1csnn1)N1CCC2(CCCN(c3cccc(-c4ccccc4)c3)C2)CC1
AC50 [6]: 15.8 µM [rising, single point]

CN(Cc1ccco1)c1ncnc2ccc(-c3ccc4c(c3)OCO4)cc12
AC50 [6]: 3.16 µM [rising, partial curve]

C[C@@]12C(=O)OC(=O)[C@@]1(C)[C@H]1CC[C@@H]2O1
AC50 [6]: 15.8 µM [rising, partial curve, poor fit]

O=C1CC2(CCCC2)CC(=O)N1CCNC[C@H]1COc2ccccc2O1
AC50 [6]: 12.6 µM [rising, partial curve, poor fit]

O=C(c1ccncc1)N1CCC[C@@]2(CCN(C(c3ccccc3)c3ccccc3)C2)C1
AC50 [6]: 12.6 µM [rising, partial curve]

CCCCC[C@H](O)/C=C\[C@@H]1[C@H](O)CC(=O)[C@@H]1CCCCCCC(=O)O
AC50 [3, 7]: 0.0282 µM [falling, full curve]

O=C(Nc1ccc(Oc2ccc(Cl)cc2)c(Cl)c1)c1cc(I)cc(I)c1O
AC50 [3, 8]: 14.1 µM [falling, single point]

CCN(CC)CCNC(=O)c1cc(Br)c(N)cc1OC
AC50 [3, 8]: 6.31 µM [falling, partial curve, poor fit]

CCC(=O)O[C@@H](OP(=O)(CCCCc1ccccc1)CC(=O)N1C[C@H](C2CCCCC2)C[C@H]1C(=O)O)C(C)C (stereo not given in full)
AC50 [3, 8]: 9.99 µM [rising, single point]

Cc1ccc(/C=C2/C(=O)C3(C)CCC2C3(C)C)cc1 (stereo not given)
AC50 [3, 8]: 12.6 µM [falling, partial curve, poor fit]

COc1ccc(/C=C/C(=O)OCCC(C)C)cc1
AC50 [3, 8]: 9.99 µM [rising, single point]
